Reference: PubChem BioAssay AID198 (DTP/NCI, 2004)
The list does not hold the whole screen: it gathers tests that were run many times, whatever their T/C, doses with no T/C, and many T/C values between a quarter and a half above the control. Other doses and runs of a compound stand elsewhere. T/C is the treated group as % of the vehicle group. Some doses have a count of surviving animals in place of a T/C: the source files T/C as zero there, which appears to mark a toxic dose or a test without result, not a measured value. Some doses without a T/C left all or most animals alive at the check, yet need not have been tolerated: the source hardly ever lists a survival T/C far under the control, and the zero likely stands for such cases as well. Survivors were counted at the toxicity check, usually on the fifth day, unless a day is given; later deaths do not show. Schedule codes are those of the source, read here as Q, the interval in days (D) or hours (H), X, the number of doses. Additions like (4×) give the number of equal values in this list. Some entries were tested several times; their values stand side by side, smallest first. Where survival is the endpoint, the PubChem record calls one and a half times the control and up active, and a quarter to a half above the control has no call in these data; cut-offs in other NCI protocols can differ. Some T/C values are followed by the survivors on the day toxicity was checked, most often the fifth; where none is given, no animal had died by that day.

Tested on: B16 melanoma ip, C57BL/6 mice, median survival T/C
Assay: NCI In Vivo Anticancer Drug Screen. Data for tumor model B16 Melanoma (intraperitoneal) in C57BL/6 mice
Conditions: T/C endpoint: median survival time, higher T/C = longer survival
Procedure: The antitumor activity of compounds was measured in mice bearing transplantable tumors. Survival or tumor size were measured and the results are expressed as the measurement made in the treated group (T) divided by the measurement made in the vehicle treated control group (C). The tumor model used in this assay is B16 Melanoma (intraperitoneal) in C57BL/6 mice

[1] = dose: 400.0 mg/kg/injection, schedule: Q01DX009 (ip), vehicle: saline
[2] = dose: 25.0 mg/kg/injection, schedule: Q01DX009 (ip), vehicle: saline
[3] = dose: 32.0 mg/kg/injection, schedule: Q01DX009 (ip), vehicle: saline
[4] = dose: 100.0 mg/kg/injection, schedule: Q01DX009 (ip), vehicle: saline
[5] = dose: 200.0 mg/kg/injection, schedule: Q01DX009 (ip), vehicle: saline
[6] = dose: 50.0 mg/kg/injection, schedule: Q01DX009 (ip), vehicle: saline
[7] = dose: 0.4 mg/kg/injection, schedule: Q01DX009 (ip), vehicle: saline

In the case of `CO[C@H]1/C=C/O[C@@]2(C)Oc3c(C)c(O)c4c(O)c(c(/C=N/N5CCN(C)CC5)c(O)c4c3C2=O)NC(=O)/C(C)=C\C=C\[C@H](C)[C@H](O)[C@@H](C)[C@@H](O)[C@@H](C)[C@H](OC(C)=O)[C@@H]1C`, the survivor count [1] was 5 of 6.

For `CCCC/C=C/CCCCCCCC(=O)OCCCCCCCCCCCCCCCC`, the survivor count (dose: 800.0 mg/kg/injection, schedule: Q01DX001 (ip), vehicle: saline with Tween-80) was 4 of 4 on day 2, the survivor count (dose: 1600.0 mg/kg/injection, schedule: Q01DX001 (ip), vehicle: saline with Tween-80) was 4 of 4 on day 2 and the survivor count (dose: 3200.0 mg/kg/injection, schedule: Q01DX001 (ip), vehicle: saline with Tween-80) was 4 of 4 on day 2.

In the case of `CN(Cc1cnc2nc(N)nc(N)c2n1)c1ccc(C(=O)N[C@@H](CCC(=O)O)C(=O)O)cc1`, the survivor count (dose: 3.0 mg/kg/injection, schedule: Q01DX009 (ip), vehicle: saline) was 10 of 10.

For `Nc1ncnc2c1ccn2C1OC(CO)C(O)C1O` (stereo not drawn), the survivor count (dose: 2.5 mg/kg/injection, schedule: Q01DX009 (ip), vehicle: saline) was 10 of 10.

`OC1CCCC2CCC[N-]C12.OC1CCCC2CCC[N-]C12.[O]=[V][OH]` (stereo not drawn) was tested, and the survivor count (dose: 50.0 mg/kg/injection, schedule: Q01DX009 (ip), vehicle: saline with Tween-80) was 2 of 6.

In the case of `O=NN(CCCl)C(=O)Nc1ccc(CCCl)cc1`, the survivor count (dose: 12.5 mg/kg/injection, schedule: Q01DX009 (ip), vehicle: saline) was 6 of 6 and the survivor count [2] was 6 of 6.

`NC(Cc1ccc(N(CCCl)CCCl)cc1)C(=O)O` (stereo not drawn) was tested, and the survivor count (dose: 16.0 mg/kg/injection, schedule: Q01DX009 (ip), vehicle: saline) was 9 of 10 and 10 of 10 and the survivor count [3] was 2 of 10 and 6 of 10.

With `CCOC(N)=O` the survivor count (dose: 1000.0 mg/kg/injection, schedule: Q01DX009 (ip), vehicle: saline) was 7 of 10.

For `CC(C)S(=O)(=O)/C(Cl)=C(/Cl)C(Cl)=C(Cl)Cl`, the survivor count (dose: 100.0 mg/kg/injection, schedule: Q01DX009 (ip), vehicle: saline with Tween-80) was 5 of 6 and the survivor count (dose: 200.0 mg/kg/injection, schedule: Q01DX009 (ip), vehicle: saline with Tween-80) was 0 of 6.

For `NC(=O)Oc1cc(OC(N)=O)cc(N(CCCl)CCCl)c1`, the T/C [2] was 130 % of control [9 of 10 alive], the T/C [4] was 142 % of control [7 of 10 alive] and the survivor count [5] was 9 of 10.

`O=C1CN(CCN2CC(=O)NC(=O)C2)CC(=O)N1` was tested, and the T/C (dose: 15.0 mg/kg/injection, schedule: Q01DX009 (ip), vehicle: saline) was 137 % of control, the T/C (dose: 60.0 mg/kg/injection, schedule: Q01DX009 (ip), vehicle: saline) was 131 % of control and the T/C (dose: 120.0 mg/kg/injection, schedule: Q01DX009 (ip), vehicle: saline) was 146 % of control. The survivor count (dose: 240.0 mg/kg/injection, schedule: Q01DX009 (ip), vehicle: saline) was 6 of 6.

With `C[C@]12C=CC(=O)C=C1CC[C@@H]1[C@@H]2C(=O)C[C@@]2(C)[C@H]1CC[C@]2(O)C(=O)CO` the survivor count [6] was 10 of 10.

`CC[C@H]1CN2CCc3cc(OC)c(OC)cc3[C@@H]2C[C@@H]1C[C@H]1NCCc2cc(OC)c(OC)cc21` was tested, and the T/C (dose: 4.0 mg/kg/injection, schedule: Q03DX005 (ip), vehicle: saline) was 129 % of control and the T/C (dose: 8.0 mg/kg/injection, schedule: Q03DX005 (ip), vehicle: saline) was 141 % of control.

With `CCSCCC(N)C(=O)O` (stereo not drawn) the survivor count [1] was 8 of 10.

With `O=NN(CCF)C(=O)NC1CCS(=O)(=O)CC1` the T/C (dose: 1.9 mg/kg/injection, schedule: Q01DX001 (ip), vehicle: saline) was 134 % of control, the T/C (dose: 3.75 mg/kg/injection, schedule: Q01DX001 (ip), vehicle: saline) was 146 % of control and the survivor count (dose: 60.0 mg/kg/injection, schedule: Q01DX001 (ip), vehicle: saline) was 4 of 6.

In the case of `O=P1(N(CCCl)CCCl)NCCCO1` (stereo not drawn), the T/C [2] was 130 % of control, the survivor count [4] was 10 of 10 and the survivor count [5] was 9 of 10.

With `COC1=C(N)C(=O)c2nc(-c3nc(C(=O)O)c(C)c(-c4ccc(OC)c(OC)c4O)c3N)ccc2C1=O` the T/C (dose: 0.1 mg/kg/injection, schedule: Q01DX009 (ip), vehicle: saline, evaluated on day 35) was 106 % of control, the T/C (dose: 0.1 mg/kg/injection, schedule: Q01DX009 (ip), vehicle: saline, evaluated on day 60) was 106 (2×), 115, 217 % of control and the T/C (dose: 0.2 mg/kg/injection, schedule: Q01DX009 (ip), vehicle: saline, evaluated on day 35) was 90 % of control. For the same compound, the T/C (dose: 0.2 mg/kg/injection, schedule: Q01DX009 (ip), vehicle: saline, evaluated on day 60) was 109, 113, 117, 118 % of control, the T/C [7] was 121 % of control and the survivor count [7] was 10 of 10 (2×). The survivor count (dose: 0.8 mg/kg/injection, schedule: Q01DX009 (ip), vehicle: saline) was 6 of 10.

For `CC(=O)[C@@]1(O)CC[C@H]2[C@@H]3C[C@H](C)C4=CC(=O)C=C[C@]4(C)[C@@]3(F)[C@@H](O)C[C@@]21C`, the survivor count (dose: 50.0 mg/kg/injection, schedule: Q01DX009 (sc), vehicle: steroid suspending solution) was 10 of 10 and the survivor count (dose: 100.0 mg/kg/injection, schedule: Q01DX009 (sc), vehicle: steroid suspending solution) was 10 of 10.

For `Nc1nc2ncc(CNc3ccc(C(=O)NC(CCC(=O)O)C(=O)O)cc3)nc2c(=O)[nH]1` (stereo not drawn), the survivor count [6] was 10 of 10 and the survivor count [4] was 8 of 10 and 10 of 10.

For `c1ccc2sc(SSN3CC4CCC(CC4)C3)nc2c1`, the survivor count (dose: 400.0 mg/kg/injection, schedule: Q01DX009 (ip), vehicle: saline with Tween-80) was 10 of 10.

In the case of `COc1cc(C[C@H]2c3cc(OC)c(OC)cc3CCN2C)c(Oc2cc3c(cc2OC)-c2c(OC)c(OC)cc4c2[C@H](C3)N(C)CC4)cc1OC`, the survivor count [5] was 10 of 10.

With `CC(=O)OC(C)(C)/C=C/C(=O)[C@](C)(O)[C@H]1[C@H](O)C[C@@]2(C)[C@@H]3CC=C4[C@@H](C[C@H](O)C(=O)C4(C)C)[C@]3(C)C(=O)C[C@]12C` the survivor count (dose: 2.0 mg/kg/injection, schedule: Q01DX009 (ip), vehicle: saline with Tween-80) was 1 of 6 and the survivor count (dose: 4.0 mg/kg/injection, schedule: Q01DX009 (ip), vehicle: saline with Tween-80) was 0 of 6.

In the case of `CN(C)CCCN1c2ccc(O)cc2Sc2ccc(Cl)cc21`, the survivor count [5] was 1 of 6 and the survivor count [1] was 0 of 6.

In the case of `Clc1ccc2c(c1)/C(=C/c1ccc3c(c1)OCO3)c1cc(Cl)cc(Cl)c1-2`, the survivor count (dose: 3.13 mg/kg/injection, schedule: Q01DX009 (ip), vehicle: saline with Tween-80) was 6 of 6, the survivor count (dose: 6.25 mg/kg/injection, schedule: Q01DX009 (ip), vehicle: saline with Tween-80) was 6 of 6 and the survivor count (dose: 12.5 mg/kg/injection, schedule: Q01DX009 (ip), vehicle: saline with Tween-80) was 6 of 6. For the same compound, the survivor count (dose: 25.0 mg/kg/injection, schedule: Q01DX009 (ip), vehicle: saline with Tween-80) was 5 of 6.

In the case of `Cn1c(=O)c2ncnnc2n(C)c1=O`, the survivor count [2] was 5 of 6, the survivor count [6] was 0 of 6 and 2 of 6 and the survivor count [4] was 0 of 6. For the same compound, the survivor count [5] was 0 of 6 and the survivor count [1] was 0 of 6.

With `CO[C@H](C(=O)[C@@H](O)[C@@H](C)O)[C@@H]1Cc2cc3cc(OC4CC(OC5CC(O)C(O)C(C)O5)C(O)C(C)O4)c(C)c(O)c3c(O)c2C(=O)[C@H]1OC1CC(OC2CC(OC3CC(C)(O)C(O)C(C)O3)C(O)C(C)O2)C(O)C(C)O1` (stereo partly drawn) the T/C (dose: 0.25 mg/kg/injection, schedule: Q01DX009 (ip), vehicle: saline) was 133 % of control, the T/C (dose: 0.5 mg/kg/injection, schedule: Q01DX009 (ip), vehicle: saline) was 144 % of control and the survivor count (dose: 1.0 mg/kg/injection, schedule: Q01DX009 (ip), vehicle: saline) was 6 of 10. The survivor count (dose: 2.0 mg/kg/injection, schedule: Q01DX009 (ip), vehicle: saline) was 0 of 10 and 9 of 10.

For `Nc1ncnc2c(C3OC(CO)C(O)C3O)[nH]nc12` (stereo not drawn), the T/C (dose: 15.6 mg/kg/injection, schedule: Q01DX009 (ip), vehicle: saline) was 147 % of control, the survivor count [3] was 10 of 10 and the survivor count (dose: 62.5 mg/kg/injection, schedule: Q01DX009 (ip), vehicle: saline) was 10 of 10. The survivor count (dose: 64.0 mg/kg/injection, schedule: Q01DX009 (ip), vehicle: saline) was 10 of 10 and the survivor count (dose: 125.0 mg/kg/injection, schedule: Q01DX009 (ip), vehicle: saline) was 8 of 10.

With `CN(C)/N=N/c1nc[nH]c1C(N)=O` the T/C [2] was 126 % of control, the T/C [6] was 146 % of control and the T/C [4] was 133 % of control. For the same compound, the T/C [5] was 130 % of control and the survivor count [5] was 10 of 10.

With `O=CC(S)CO` (stereo not drawn) the T/C [4] was 130 % of control and the survivor count [5] was 8 of 10.
